Measured values as given in the supplement of paper PMC8728848.
Some of the results follow.

Experiments:
Experiment in all cases: glycan array binding signal (z-score within array); higher = stronger binding
Conditions in all cases: glycan notation: IUPAC condensed, linker removed
[1] = molecular target: GlcNAc(b1-2)[GlcNAc(b1-4)]Man(a1-3)[GlcNAc(b1-4)][GlcNAc(b1-2)[GlcNAc(b1-6)]Man(a1-6)]Man(b1-4)GlcNAc(b1-4)GlcNAc
Method in brief: (§1)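 Glycan array binding is given as a within-array Z-score, which can be read as non-binding when negative. The arrays, 3228 of them, came from the Consortium for Functional Glycomics database and were retained only where the protein sequence was available. Z-scores were averaged across arrays of the same protein sequence at different concentrations or buffers and across linkers.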

[2] = molecular target: GlcNAc(b1-2)[GlcNAc(b1-4)]Man(a1-3)[GlcNAc(b1-4)][GlcNAc(b1-2)[GlcNAc(b1-6)]Man(a1-6)]Man(b1-4)GlcNAc(b1-4)[Fuc(a1-6)]GlcNAc
Method in brief: as §1

[3] = molecular target: GlcNAc(b1-2)[GlcNAc(b1-6)]Man(a1-6)[GlcNAc(b1-2)Man(a1-3)]Man(b1-4)GlcNAc(b1-4)GlcNAc
Method in brief: as §1

[4] = molecular target: GlcNAc(b1-2)[GlcNAc(b1-6)]Man(a1-6)[GlcNAc(b1-2)Man(a1-3)]Man(b1-4)GlcNAc(b1-4)[Fuc(a1-6)]GlcNAc
Method in brief: as §1

[5] = molecular target: GlcNAc(b1-2)[GlcNAc(b1-6)]Man(a1-6)[GlcNAc(b1-4)][GlcNAc(b1-2)Man(a1-3)]Man(b1-4)GlcNAc(b1-4)GlcNAc
Method in brief: as §1

GlcNAc(b1-3)Fuc = molecular target: GlcNAc(b1-3)Fuc
Method in brief: as §1

GlcNAc(b1-3)Gal = molecular target: GlcNAc(b1-3)Gal
Method in brief: as §1

[6] = molecular target: GlcNAc(b1-3)Gal(b1-3)GalNAc
Method in brief: as §1

GlcNAc(b1-3)Gal(b1-4)Glc = molecular target: GlcNAc(b1-3)Gal(b1-4)Glc
Method in brief: as §1

[7] = molecular target: GlcNAc(b1-3)Gal(b1-4)GlcNAc
Method in brief: as §1

[8] = molecular target: GlcNAc(b1-3)Gal(b1-4)GlcNAc(b1-2)Man(a1-3)[GlcNAc(b1-3)Gal(b1-4)GlcNAc(b1-2)Man(a1-6)]Man(b1-4)GlcNAc(b1-4)GlcNAc
Method in brief: as §1

[9] = molecular target: GlcNAc(b1-3)Gal(b1-4)GlcNAc(b1-2)Man(a1-3)[GlcNAc(b1-3)Gal(b1-4)GlcNAc(b1-2)Man(a1-6)]Man(b1-4)GlcNAc(b1-4)[Fuc(a1-6)]GlcNAc
Method in brief: as §1

[10] = molecular target: GlcNAc(b1-3)Gal(b1-4)GlcNAc(b1-2)[GlcNAc(b1-3)Gal(b1-4)GlcNAc(b1-6)]Man(a1-6)[GlcNAc(b1-3)Gal(b1-4)GlcNAc(b1-2)Man(a1-3)]Man(b1-4)GlcNAc(b1-4)GlcNAc
Method in brief: as §1

[11] = molecular target: GlcNAc(b1-3)Gal(b1-4)GlcNAc(b1-3)Gal(b1-4)GlcNAc
Method in brief: as §1

[12] = molecular target: GlcNAc(b1-3)Gal(b1-4)GlcNAc(b1-3)Gal(b1-4)GlcNAc(b1-2)Man(a1-3)[GlcNAc(b1-3)Gal(b1-4)GlcNAc(b1-3)Gal(b1-4)GlcNAc(b1-2)Man(a1-6)]Man(b1-4)GlcNAc(b1-4)GlcNAc
Method in brief: as §1

[13] = molecular target: GlcNAc(b1-3)Gal(b1-4)GlcNAc(b1-3)Gal(b1-4)GlcNAc(b1-2)Man(a1-3)[GlcNAc(b1-3)Gal(b1-4)GlcNAc(b1-3)Gal(b1-4)GlcNAc(b1-2)Man(a1-6)]Man(b1-4)GlcNAc(b1-4)[Fuc(a1-6)]GlcNAc
Method in brief: as §1

[14] = molecular target: GlcNAc(b1-3)Gal(b1-4)GlcNAc(b1-3)Gal(b1-4)GlcNAc(b1-2)[GlcNAc(b1-3)Gal(b1-4)GlcNAc(b1-3)Gal(b1-4)GlcNAc(b1-6)]Man(a1-6)[GlcNAc(b1-3)Gal(b1-4)GlcNAc(b1-3)Gal(b1-4)GlcNAc(b1-2)Man(a1-3)]Man(b1-4)GlcNAc(b1-4)[Fuc(a1-6)]GlcNAc
Method in brief: as §1

[15] = molecular target: GlcNAc(b1-3)Gal(b1-4)GlcNAc(b1-3)Gal(b1-4)GlcNAc(b1-3)Gal(b1-4)GlcNAc(b1-2)Man(a1-3)[GlcNAc(b1-3)Gal(b1-4)GlcNAc(b1-3)Gal(b1-4)GlcNAc(b1-3)Gal(b1-4)GlcNAc(b1-2)Man(a1-6)]Man(b1-4)GlcNAc(b1-4)GlcNAc
Method in brief: as §1

[16] = molecular target: GlcNAc(b1-3)Gal(b1-4)GlcNAc(b1-3)Gal(b1-4)GlcNAc(b1-3)Gal(b1-4)GlcNAc(b1-2)Man(a1-3)[GlcNAc(b1-3)Gal(b1-4)GlcNAc(b1-3)Gal(b1-4)GlcNAc(b1-3)Gal(b1-4)GlcNAc(b1-2)Man(a1-6)]Man(b1-4)GlcNAc(b1-4)[Fuc(a1-6)]GlcNAc
Method in brief: as §1

[17] = molecular target: GlcNAc(b1-3)Gal(b1-4)GlcNAc(b1-3)Gal(b1-4)GlcNAc(b1-3)Gal(b1-4)GlcNAc(b1-2)[GlcNAc(b1-3)Gal(b1-4)GlcNAc(b1-3)Gal(b1-4)GlcNAc(b1-3)Gal(b1-4)GlcNAc(b1-6)]Man(a1-6)[GlcNAc(b1-3)Gal(b1-4)GlcNAc(b1-3)Gal(b1-4)GlcNAc(b1-3)Gal(b1-4)GlcNAc(b1-2)Man(a1-3)]Man(b1-4)GlcNAc(b1-4)[Fuc(a1-6)]GlcNAc
Method in brief: as §1

[18] = molecular target: GlcNAc(b1-3)Gal(b1-4)GlcNAc(b1-3)Gal(b1-4)GlcNAc(b1-3)Gal(b1-4)GlcNAc(b1-3)Gal(b1-4)GlcNAc(b1-2)Man(a1-3)[GlcNAc(b1-3)Gal(b1-4)GlcNAc(b1-3)Gal(b1-4)GlcNAc(b1-3)Gal(b1-4)GlcNAc(b1-3)Gal(b1-4)GlcNAc(b1-2)Man(a1-6)]Man(b1-4)GlcNAc(b1-4)GlcNAc
Method in brief: as §1

[19] = molecular target: GlcNAc(b1-3)Gal(b1-4)GlcNAc(b1-3)Gal(b1-4)GlcNAc(b1-3)Gal(b1-4)GlcNAc(b1-3)Gal(b1-4)GlcNAc(b1-2)Man(a1-3)[GlcNAc(b1-3)Gal(b1-4)GlcNAc(b1-3)Gal(b1-4)GlcNAc(b1-3)Gal(b1-4)GlcNAc(b1-3)Gal(b1-4)GlcNAc(b1-2)Man(a1-6)]Man(b1-4)GlcNAc(b1-4)[Fuc(a1-6)]GlcNAc
Method in brief: as §1

[20] = molecular target: GlcNAc(b1-3)Gal(b1-4)GlcNAc(b1-3)Gal(b1-4)GlcNAc(b1-3)Gal(b1-4)GlcNAc(b1-3)Gal(b1-4)GlcNAc(b1-2)[GlcNAc(b1-3)Gal(b1-4)GlcNAc(b1-3)Gal(b1-4)GlcNAc(b1-3)Gal(b1-4)GlcNAc(b1-3)Gal(b1-4)GlcNAc(b1-6)]Man(a1-6)[GlcNAc(b1-3)Gal(b1-4)GlcNAc(b1-3)Gal(b1-4)GlcNAc(b1-3)Gal(b1-4)GlcNAc(b1-3)Gal(b1-4)GlcNAc(b1-2)Man(a1-3)]Man(b1-4)GlcNAc(b1-4)[Fuc(a1-6)]GlcNAc
Method in brief: as §1

[21] = molecular target: GlcNAc(b1-3)Gal(b1-4)GlcNAc(b1-3)Gal(b1-4)GlcNAc(b1-3)GalNAc
Method in brief: as §1

[22] = molecular target: GlcNAc(b1-3)Gal(b1-4)GlcNAc(b1-3)GalNAc
Method in brief: as §1

[23] = molecular target: GlcNAc(b1-3)Gal(b1-4)GlcNAc(b1-3)[GlcNAc(b1-3)Gal(b1-4)GlcNAc(b1-3)]GalNAc
Method in brief: as §1

[24] = molecular target: GlcNAc(b1-3)Gal(b1-4)GlcNAc(b1-6)[Gal(b1-3)]GalNAc
Method in brief: as §1

[25] = molecular target: GlcNAc(b1-3)Gal(b1-4)GlcNAc(b1-6)[GlcNAc(b1-3)Gal(b1-3)]GalNAc
Method in brief: as §1

[26] = molecular target: GlcNAc(b1-3)Gal(b1-4)GlcNAc(b1-6)[GlcNAc(b1-3)]Gal(b1-4)GlcNAc
Method in brief: as §1

GlcNAc(b1-3)GalNAc = molecular target: GlcNAc(b1-3)GalNAc
Method in brief: as §1

GlcNAc(b1-3)Man = molecular target: GlcNAc(b1-3)Man
Method in brief: as §1

[27] = molecular target: GlcNAc(b1-3)[GlcNAc(b1-4)][GlcNAc(b1-6)]GlcNAc
Method in brief: as §1

[28] = molecular target: GlcNAc(b1-3)[GlcNAc(b1-6)]Gal(b1-4)GlcNAc
Method in brief: as §1

[29] = molecular target: GlcNAc(b1-3)[GlcNAc(b1-6)]GalNAc
Method in brief: as §1

[30] = molecular target: GlcNAc(b1-4)Gal(b1-4)GlcNAc
Method in brief: as §1

GlcNAc(b1-4)GlcNAc = molecular target: GlcNAc(b1-4)GlcNAc
Method in brief: as §1

[31] = molecular target: GlcNAc(b1-4)GlcNAc(b1-4)GlcNAc
Method in brief: as §1

[32] = molecular target: GlcNAc(b1-4)GlcNAc(b1-4)GlcNAc(b1-4)GlcNAc(b1-4)GlcNAc
Method in brief: as §1

B1: Vd7LysM (Verticillium dahliae) (protein)
chain: RRGPEPKYPPAAGTSSYCSYWVDYEGDKSCSRVLEDNVVVLKDFARWNPTVGADCSGIKAGNSYCVEAFGEPEPIEVTTTTRAATTTTQPTATTTTFANGIATPQPTQSGMVTNCNKFHWIAEGVSCSQVISFQKITLADFVKWNPSVKSDCSGMWAGVNVCVGVVGSSTDTAKPTTTAPSNGVVTPQPTQPSMVTNCNKFHWIAKGVTCQQVISYQKISLADFVKWNPSVLSDCSGMWAEVQVCVGVIGSTPTTLATTTTTAGNGVSTPLPTQPGMVTNCAKFHWVAKGVTCNQIYSFQKITLEQFVSYNPTVKSDCSGMQAEVQVCVGLIAGTTPTTTRPPTTTAPGNGVSTPQPTQPGMVTNCAKFHWVAKGVTCNQIYSFQKITLEQFVSFNPTVKSDCTGMQAEVNVCVGLIGGNPTPTQTGNGIATPTPIQPGMVSNCKKFHWIAQGVTCQQVISFQKITLADFVKWNTGVGSDCRTMWAETNVCVGV
Which “glycan array binding signal (z-score)” value [1] does the source give for B1 here?
Its value is 0.565.

And the “glycan array binding signal (z-score)” value [2]?
Its value is -0.828.

And the “glycan array binding signal (z-score)” value [3]?
The value was -0.461.

What about the “glycan array binding signal (z-score)” value [4] of the same binder?
Its value is 0.907.

And the “glycan array binding signal (z-score)” value [5]?
Its value is 1.31.

And the “glycan array binding signal (z-score)” value (GlcNAc(b1-3)Fuc)?
Its value is -1.11.

And the “glycan array binding signal (z-score)” value (GlcNAc(b1-3)Gal)?
Its value is -1.48.

And the “glycan array binding signal (z-score)” value [6]?
The value was 1.01.

And the “glycan array binding signal (z-score)” value (GlcNAc(b1-3)Gal(b1-4)Glc)?
The value was 1.05.

And the “glycan array binding signal (z-score)” value [7]?
Its value is 0.117.

What about the “glycan array binding signal (z-score)” value [8] of the same binder?
The value was 2.67.

And the “glycan array binding signal (z-score)” value [9]?
Its value is 0.334.

What about the “glycan array binding signal (z-score)” value [10] of the same binder?
The value was 0.139.

And the “glycan array binding signal (z-score)” value [11]?
The value was 1.61.

And the “glycan array binding signal (z-score)” value [12]?
The value was 1.16.

What about the “glycan array binding signal (z-score)” value [13] of the same binder?
The value was -0.929.

What about the “glycan array binding signal (z-score)” value [14] of the same binder?
The value was 2.72.

What about the “glycan array binding signal (z-score)” value [15] of the same binder?
Its value is -1.02.

And the “glycan array binding signal (z-score)” value [16]?
The value was 0.992.

And the “glycan array binding signal (z-score)” value [17]?
The value was 2.29.

What about the “glycan array binding signal (z-score)” value [18] of the same binder?
Its value is -0.184.

And the “glycan array binding signal (z-score)” value [19]?
Its value is 0.619.

What about the “glycan array binding signal (z-score)” value [20] of the same binder?
The value was 2.34.

And the “glycan array binding signal (z-score)” value [21]?
The value was 0.041.

And the “glycan array binding signal (z-score)” value [22]?
The value was -1.01.

What about the “glycan array binding signal (z-score)” value [23] of the same binder?
The value was 0.165.

What about the “glycan array binding signal (z-score)” value [24] of the same binder?
Its value is 0.419.

And the “glycan array binding signal (z-score)” value [25]?
The value was -0.734.

And the “glycan array binding signal (z-score)” value [26]?
The value was 0.313.

And the “glycan array binding signal (z-score)” value (GlcNAc(b1-3)GalNAc)?
The value was -1.38.

And the “glycan array binding signal (z-score)” value (GlcNAc(b1-3)Man)?
Its value is 0.604.

What about the “glycan array binding signal (z-score)” value [27] of the same binder?
The value was -0.865.

What about the “glycan array binding signal (z-score)” value [28] of the same binder?
Its value is 0.506.

And the “glycan array binding signal (z-score)” value [29]?
Its value is 0.981.

And the “glycan array binding signal (z-score)” value [30]?
Its value is 0.04.

What about the “glycan array binding signal (z-score)” value (GlcNAc(b1-4)GlcNAc) of the same binder?
Its value is -0.831.

What about the “glycan array binding signal (z-score)” value [31] of the same binder?
Its value is -0.545.

What about the “glycan array binding signal (z-score)” value [32] of the same binder?
The value was 2.03.
